Assay results taken from article PMC12579213.

Chains of the proteins cited; added tags and fusions are not shown. Lines headed by an entry give the natural chain unless they say otherwise; changes in a name come on top. Residues count along the entry.
UniProt P60953: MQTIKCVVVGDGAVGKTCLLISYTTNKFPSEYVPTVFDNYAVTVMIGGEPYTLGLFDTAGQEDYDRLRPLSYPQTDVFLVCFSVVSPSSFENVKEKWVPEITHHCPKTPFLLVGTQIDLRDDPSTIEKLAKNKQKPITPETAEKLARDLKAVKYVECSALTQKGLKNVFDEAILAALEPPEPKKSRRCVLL
UniProt P61586: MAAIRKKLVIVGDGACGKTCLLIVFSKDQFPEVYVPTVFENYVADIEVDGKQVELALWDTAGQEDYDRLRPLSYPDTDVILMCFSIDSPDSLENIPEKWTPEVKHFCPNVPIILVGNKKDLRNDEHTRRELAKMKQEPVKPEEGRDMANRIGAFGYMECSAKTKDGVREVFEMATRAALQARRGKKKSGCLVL
UniProt P10301: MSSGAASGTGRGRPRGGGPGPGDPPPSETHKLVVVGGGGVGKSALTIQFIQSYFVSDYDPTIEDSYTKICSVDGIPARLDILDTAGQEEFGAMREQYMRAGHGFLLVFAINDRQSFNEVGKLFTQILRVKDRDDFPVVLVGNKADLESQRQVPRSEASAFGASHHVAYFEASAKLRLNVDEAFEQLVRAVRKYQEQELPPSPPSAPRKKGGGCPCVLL
UniProt O00401, residues 203-239: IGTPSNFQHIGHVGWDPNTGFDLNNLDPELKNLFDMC
UniProt Q9Y4D1, residues 45-233: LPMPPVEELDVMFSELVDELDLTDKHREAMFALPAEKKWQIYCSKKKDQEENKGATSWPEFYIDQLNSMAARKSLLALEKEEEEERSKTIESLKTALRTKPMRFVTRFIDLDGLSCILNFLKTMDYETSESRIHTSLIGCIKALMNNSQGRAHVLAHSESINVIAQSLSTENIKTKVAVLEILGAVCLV
UniProt Q13464, residues 934-1015: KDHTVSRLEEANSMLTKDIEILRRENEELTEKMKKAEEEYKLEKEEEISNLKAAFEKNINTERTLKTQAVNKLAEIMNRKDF
UniProt Q96PY5, residues 23-276: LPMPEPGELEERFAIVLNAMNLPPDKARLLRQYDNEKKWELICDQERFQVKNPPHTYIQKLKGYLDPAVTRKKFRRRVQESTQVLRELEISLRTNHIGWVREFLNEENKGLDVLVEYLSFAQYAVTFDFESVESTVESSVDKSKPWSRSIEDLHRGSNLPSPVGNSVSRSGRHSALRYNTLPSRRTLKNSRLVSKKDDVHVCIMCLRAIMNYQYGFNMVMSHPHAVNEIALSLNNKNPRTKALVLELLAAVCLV
UniProt Q13153, residues 69-108: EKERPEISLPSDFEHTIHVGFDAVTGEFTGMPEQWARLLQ
UniProt O60610, residues 63-260: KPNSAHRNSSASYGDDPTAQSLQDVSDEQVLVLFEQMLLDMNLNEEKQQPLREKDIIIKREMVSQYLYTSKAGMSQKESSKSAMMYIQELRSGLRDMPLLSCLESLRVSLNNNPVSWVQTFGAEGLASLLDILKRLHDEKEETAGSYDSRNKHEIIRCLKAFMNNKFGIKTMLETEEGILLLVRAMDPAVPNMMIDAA
UniProt Q8IVF7, residues 27-278: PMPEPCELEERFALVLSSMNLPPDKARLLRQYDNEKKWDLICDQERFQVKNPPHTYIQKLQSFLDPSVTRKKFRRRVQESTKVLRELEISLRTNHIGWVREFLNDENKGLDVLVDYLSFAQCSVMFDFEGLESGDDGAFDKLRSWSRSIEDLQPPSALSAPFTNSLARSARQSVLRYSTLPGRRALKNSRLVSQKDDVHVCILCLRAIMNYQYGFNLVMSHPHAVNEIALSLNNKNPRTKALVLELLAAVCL
UniProt O75914, residues 65-89: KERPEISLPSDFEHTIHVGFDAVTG
UniProt P42768, residues 230-287: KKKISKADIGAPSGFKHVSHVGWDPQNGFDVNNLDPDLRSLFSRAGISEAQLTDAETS

Tests used:
[1] = molecular target: DsRed-Cdc42h (Q61L, ΔCAAX) (UniProt P60953); experiment: INSPECT (co-condensation of proteins fused to a tetrameric RFP and to ferritin, imaged in living cells); DsRed-small GTPase (bait) and effector-CFP-FT (prey) co-transfected; co-localized condensates counted; efficiency, SNR and protein interaction index (PI)
[2] = molecular target: DsRed-RhoA (Q63L, ΔCAAX) (UniProt P61586); experiment: as above
[3] = molecular target: DsRed-RRas (Q87L, ΔCAAX) (UniProt P10301); experiment: INSPECT (co-condensation of proteins fused to a tetrameric RFP and to ferritin, imaged in living cells); ternary format: fluorescent-protein-fused intermediate (YFP-Sos) co-expressed with Prey-CFP-FT and DsRed-Bait

binding [1] | binding [2] | binding [3] | Substance
binds |  |  | CRIBN_(WASP)-CFP-FT (from UniProt O00401 203-239) (domain or fragment)
binds |  |  | RBD_(DAAM1)-CFP-FT (from UniProt Q9Y4D1 45-233) (domain or fragment)
binds weakly | binds |  | GBD_(ROCK1)-CFP-FT (from UniProt Q13464 934-1015) (domain or fragment)
binds |  |  | RBD_(FMNL2)-CFP-FT (from UniProt Q96PY5 23-276) (domain or fragment)
binds |  |  | CRIB_(PAK1)-CFP-FT (from UniProt Q13153 69-108) (domain or fragment)
binds |  |  | RBD_(DIAPH1)-CFP-FT (from UniProt O60610 63-260) (domain or fragment)
binds |  |  | RBD_(FMNL3)-CFP-FT (from UniProt Q8IVF7 27-278) (domain or fragment)
binds |  |  | CRIB_(PAK3)-CFP-FT (from UniProt O75914 65-89) (domain or fragment)
binds |  |  | CRIB_(WASP)-CFP-FT (from UniProt P42768 230-287) (domain or fragment)
 |  | no binding | YFP-Sos_(564-1050) (from UniProt Q07889 564-1050) (domain or fragment)

No constants are given. Whether binding was seen depends on the method and setting. For some assays here: Binding calls can cover weak binding; strength is not graded here.
